In paper PMC6527180, “A chloride ring is an ancient evolutionary innovation mediating the assembly of the collagen IV scaffold of basement membranes” (The Journal of Biological Chemistry, 2019):
Results are given in words; binding and its absence hold for the method and conditions named.

Amino acid sequences for entries named in this document (tags omitted). Residues count along the entry.
UniProt Q7SIB2, residues 1441-1669: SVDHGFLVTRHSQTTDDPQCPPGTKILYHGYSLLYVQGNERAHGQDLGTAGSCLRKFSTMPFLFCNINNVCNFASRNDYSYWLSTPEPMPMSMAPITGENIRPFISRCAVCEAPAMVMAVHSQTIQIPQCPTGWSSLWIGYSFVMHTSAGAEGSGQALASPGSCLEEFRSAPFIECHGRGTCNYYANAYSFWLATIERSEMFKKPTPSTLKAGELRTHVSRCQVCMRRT

Target: bovine α1 NC1 monomer (collagen IV α1-chain NC1 domain from bovine lens basement membrane) (bovine) (UniProt Q7SIB2)
Test: condition: only Cl−-free buffer (25 mM Tris acetate pH 7.5, 150 mM sodium acetate); SEC; Superdex 200 Increase 10/300 GL, Cl−-free buffer: 25 mM Tris acetate pH 7.5, 150 mM sodium acetate (TNA), 0.5 ml/min; both purified

- binding: no binding
B1: bovine α2 NC1 monomer (collagen IV α2-chain NC1 domain from bovine lens basement membrane) (domain or fragment)
chain: ISIGYLLVKHSQTDQEPMCPVGMNKLWSGYSLLYFEGQEKAHNQDLGLAGSCLARFSTMPFLYCNPGDVCYYASRNDKSYWLSTTAPLPMMPVAEEDIRPYISRCSVCEAPAVAIAVHSQDVSIPHCPAGWRSLWIGYSFLMHTAAGDEGGGQSLVSPGSCLEDFRATPFIECNGARGTCHYYANKYSFWLTTIPEQSFQGTPSADTLKAGLIRTHISRCQVCMKNL
notes: collagen IV α2-chain NC1 domain, bovine, monomer from tissue-extracted NC1 hexamer; Used as a mixture with the α1 NC1 monomer; also called tissue-derived α2 NC1 monomer; NC1 monomers; source: purified from bovine lens basement membrane
